Test results from publication PMC2994644.
Results are given in words; binding and its absence hold for the method and conditions named. Binding seen in cells or lysates may run through a third protein. Some results given as binding are weak or reduced against the parent protein; the word gives no strength.

The chains behind the UniProt entries cited, without tags or fusion partners. Where a name states a change or a piece, a line headed by the entry shows the natural chain unless it says otherwise. Residues count along the entry.
GST-DSG2 ICS wild-type fusion protein fragment, bacterially expressed (amino acids 635-842 of human desmoglein-2) (Q14126, residues 635-842): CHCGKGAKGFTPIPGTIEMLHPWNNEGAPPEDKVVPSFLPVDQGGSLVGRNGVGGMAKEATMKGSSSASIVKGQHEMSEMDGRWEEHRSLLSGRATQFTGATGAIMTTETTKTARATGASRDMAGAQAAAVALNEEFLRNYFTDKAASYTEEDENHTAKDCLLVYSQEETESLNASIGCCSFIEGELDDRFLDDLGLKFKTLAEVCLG

Columns and labels:
Experiment in all cases: pull-down; GST pulldown: bacterially expressed, purified GST fusion protein as bait, rat heart lysate as source of PG and PKP2; detection by blot; only the target purified
[1] = biological target: GST-DSG2 ICS G812S fusion protein fragment, bacterially expressed (human) (UniProt Q14126)
[2] = biological target: GST-DSG2 ICS C813R fusion protein fragment, bacterially expressed (human) (UniProt Q14126)
[3] = biological target: GST-DSG2 ICS wild-type fusion protein fragment, bacterially expressed (amino acids 635-842 of human desmoglein-2) (human) (UniProt Q14126)
[4] = biological target: GST-DSG2 ICS G812C fusion protein fragment, bacterially expressed (human) (UniProt Q14126)

Measured: binding

B1: plakoglobin from rat heart lysate (protein, UniProt Q6P0K8 1-745)
chain: MEVMNLIEQPIKVTEWQQTYTYDSGIHSGVNTCVPSVSSKGLLDEDDTCGRQYTLKKTTTYTQGVPQSQGDLEYQMSTTARAKRVREAMCPGVSGEDSSLLLATQVEGQTTNLQRLAEPSQLLKSAIVHLINYQDDAELATRALPELTKLLNDEDPVVVTKAAMIVNQLSKKEASRRALMGSPQLVAAVVRTMQNTSDLDTARCTTSILHNLSHHREGLLAIFKSGGIPALVRMLSSPVESVLFYAITTLHNLLLYQEGAKMAVRLADGLQKMVPLLNKNNPKFLAITTDCLQLLAYGNQESKLIILANGGPQGLVQIMRNYSYEKLLWTTSRVLKVLSVCPSNKPAIVEAGGMQALGKHLTSNSPRLVQNCLWTLRNLSDVATKQEGLENVLKILVNQLSVDDVNVLTCATGTLSNLTCNNSKNKTLVTQNSGVEALIHAILRAGDKDDITEPAVCALRHLTSRHPEAEMAQNSVRLNYGIPAIVKLLNQPNQWPLVKATIGLIRNLALCPANHAPLQEAAVIPRLVQLLVKAHQDAQRHVAAGTQQPYTDGVRMEEIVEGCTGALHILARDPMNRMEIFRLNTIPLFVQLLYSSVENIQRVAAGVLCELAQDKEAADAIDAEGASAPLMELLHSRNEGTATYAAAVLFRISEDKNPDYRKRVSVELTNSLFKHDPAAWEAAQSMIPINEPYADDMDATYRPMYSSDVPLDPLDMHMDMDGDYPMDTYSDGLRPPYPAADHMLA
binds: all assays above

B2: plakophilin-2 from rat heart lysate (protein, UniProt F1M7L9 1-814)
chain: MAIPGSLGECGYIRTVLGQQILGHLDSSSLALPSEARLRLAGSSGRGDPVARSQRIQEQVQQTLARRGRSSVVGGNLHRTSSVPEYVYKLHLVENDFVGRQSPAARDYDMLKVGLSGWRDGSTLKVPCTSIKPHREKKTWIEALREGLEHTTDHTDCPAHYVYSHYYFNSKKSNILVFQHIKDKSLQRNAIILLSPEHCTCQHVRLIPSSVLPSLFNQLQLSPELYFSNMGTLYMTSIKGTLCIQLLKGKLPAKHQANFVTMAERRVYTLLLSSTTSSETSFRRTGDTLPSVTSGQSRVHGLHFHHVICDCLSRNADLEMTLERAVNMLDADHVPLSKISAAATFIQHESFQKSEARKRVNQLQGIPKLLQLLKVQNEDVQRAVCGALRNLVFEDNDNKVTVVLGKVNITKREGGGQAAGYMKETWKLANKNPVFLGLLWNLSSSDKLKHLMITEALLTLTESVIIPFSGWPEGDYPKANGLLDFDIFYNVTGCLRNMSSAGPDGRKVMRRCDGLIDSLVHYVRGTIADYQPDDKATENCVCILHNLSYQLEAELPEKYSQSIYMQNRNIQTNSNKSIGCFGSRSRKVKEQYQDTPMPEERSSPRGIEWLWHSIVIRMYLSLIAKSSRNYTQEASLGALQNLTAGSGPIPTSVARMVVQKENGLQHTRKMLHVGDPSVKKTAVSLLRNLSRNLSLQNEIAKETLPDLVSIIPDTVPSTDLLIETTASACYTLNNLMQNSYQNARDLLNTGGLQKIMTISIGEGYAPNKASKAASVLLYSLWAHTELHNAYKKAQFKKTDFVNSRTAKASHSLKD
binds: [1] | [2] | [4]
